No constants are given. Whether binding was seen depends on the method and setting. Some results given as binding are weak or reduced against the parent protein; the word gives no strength. Values belong to the binder of their own block, whether it stands above or below them.
Columns and labels:
Experiment in all cases: two-hybrid; PJ69-2A yeast, constructs paired by mating in a matrix; loops fused to GAL4 AD (pDEST22) and GAL4 BD (pDEST32); growth on solid -L -T -H drop-out medium with 3 mM 3AT
[1] = target: T1, PIN1 hydrophilic loop (PIN1 HL), amino acids 158-460 (Arabidopsis thaliana) (UniProt Q9C6B8)
T1 sequence: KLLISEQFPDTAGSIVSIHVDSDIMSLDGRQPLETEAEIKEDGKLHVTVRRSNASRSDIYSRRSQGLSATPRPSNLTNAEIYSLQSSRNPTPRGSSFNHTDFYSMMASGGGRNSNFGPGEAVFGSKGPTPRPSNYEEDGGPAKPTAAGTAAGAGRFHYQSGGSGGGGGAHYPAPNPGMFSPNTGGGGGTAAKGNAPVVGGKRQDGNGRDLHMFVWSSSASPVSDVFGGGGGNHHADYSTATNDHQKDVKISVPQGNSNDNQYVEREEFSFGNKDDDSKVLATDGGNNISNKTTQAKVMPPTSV

[2] = target: T2, PIN3 hydrophilic loop, amino acids 167-482 (Arabidopsis thaliana) (UniProt Q9S7Z8)
T2 sequence: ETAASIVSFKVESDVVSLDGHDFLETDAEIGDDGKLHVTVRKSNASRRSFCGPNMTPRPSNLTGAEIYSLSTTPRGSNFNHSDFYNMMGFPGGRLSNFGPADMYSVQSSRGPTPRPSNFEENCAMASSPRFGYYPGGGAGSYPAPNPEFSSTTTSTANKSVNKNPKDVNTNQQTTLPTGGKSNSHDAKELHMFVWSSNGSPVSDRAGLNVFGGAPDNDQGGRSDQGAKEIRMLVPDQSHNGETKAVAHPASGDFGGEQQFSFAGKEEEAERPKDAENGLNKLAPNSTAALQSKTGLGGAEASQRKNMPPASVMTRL

[3] = target: T3, PIN2 hydrophilic loop, amino acids 167-484 (Arabidopsis thaliana) (UniProt Q9LU77)
T3 sequence: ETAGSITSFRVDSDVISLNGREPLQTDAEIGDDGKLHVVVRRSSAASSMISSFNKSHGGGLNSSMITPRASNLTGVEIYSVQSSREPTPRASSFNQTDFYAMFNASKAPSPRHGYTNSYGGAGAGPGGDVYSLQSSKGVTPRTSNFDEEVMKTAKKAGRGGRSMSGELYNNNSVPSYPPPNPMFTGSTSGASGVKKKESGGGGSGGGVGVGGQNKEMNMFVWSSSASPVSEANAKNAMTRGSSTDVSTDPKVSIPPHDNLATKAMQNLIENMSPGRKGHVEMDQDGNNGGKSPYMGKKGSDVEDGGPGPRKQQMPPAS

[4] = target: T4, PIN4 hydrophilic loop, amino acids 168-457 (Arabidopsis thaliana) (UniProt Q8RWZ6)
T4 sequence: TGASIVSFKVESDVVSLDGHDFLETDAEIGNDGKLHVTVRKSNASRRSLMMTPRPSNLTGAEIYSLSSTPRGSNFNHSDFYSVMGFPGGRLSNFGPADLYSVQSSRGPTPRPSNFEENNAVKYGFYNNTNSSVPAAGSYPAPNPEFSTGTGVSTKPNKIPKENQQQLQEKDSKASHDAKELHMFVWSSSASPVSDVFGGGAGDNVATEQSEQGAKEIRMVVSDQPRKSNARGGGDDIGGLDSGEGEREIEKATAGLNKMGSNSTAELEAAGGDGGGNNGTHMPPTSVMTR

[5] = target: T5, PIN7 hydrophilic loop, amino acids 167-460 (Arabidopsis thaliana) (UniProt Q940Y5)
T5 sequence: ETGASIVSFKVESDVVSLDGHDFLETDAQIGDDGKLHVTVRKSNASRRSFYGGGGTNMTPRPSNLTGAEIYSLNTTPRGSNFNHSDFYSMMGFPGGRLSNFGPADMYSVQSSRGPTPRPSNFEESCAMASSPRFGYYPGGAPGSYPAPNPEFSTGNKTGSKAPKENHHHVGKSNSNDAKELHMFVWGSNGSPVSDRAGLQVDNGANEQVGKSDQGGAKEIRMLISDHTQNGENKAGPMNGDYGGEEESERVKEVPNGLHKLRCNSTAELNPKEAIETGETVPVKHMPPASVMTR

[6] = target: T6, PIN5 loop, amino acids 152-200 (Arabidopsis thaliana) (UniProt Q9FFD0)
T6 sequence: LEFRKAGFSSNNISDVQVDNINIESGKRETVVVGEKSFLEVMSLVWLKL

[7] = target: T7, PIN8 loop, amino acids 157-218 (Arabidopsis thaliana) (UniProt Q9LFP6)
T7 sequence: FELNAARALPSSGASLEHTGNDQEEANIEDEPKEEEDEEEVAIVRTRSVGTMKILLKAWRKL

- binding [1]: binds
B1: PIN1 hydrophilic loop (PIN1 HL), amino acids 158-460 (domain or fragment, UniProt Q9C6B8 158-460)
chain: T1 sequence

- binding [1]: no binding
- binding [2]: no binding
- binding [3]: no binding
B2: PIN3 hydrophilic loop, amino acids 167-482 (domain or fragment, UniProt Q9S7Z8 167-482)
chain: T2 sequence

- binding [1]: no binding
- binding [3]: no binding
B3: PIN2 hydrophilic loop, amino acids 167-484 (domain or fragment, UniProt Q9LU77 167-484)
chain: T3 sequence

- binding [1]: no binding
- binding [4]: no binding
- binding [5]: no binding
- binding [6]: no binding
- binding [7]: no binding
- binding [2]: no binding
- binding [3]: no binding
B4: PIN8 loop, amino acids 157-218 (domain or fragment, UniProt Q9LFP6 157-218)
chain: T7 sequence

- binding [1]: no binding
- binding [4]: no binding
- binding [2]: no binding
- binding [3]: no binding
B5: PIN4 hydrophilic loop, amino acids 168-457 (domain or fragment, UniProt Q8RWZ6 168-457)
chain: T4 sequence

- binding [1]: no binding
- binding [4]: no binding
- binding [6]: no binding
- binding [2]: no binding
- binding [3]: no binding
B6: PIN5 loop, amino acids 152-200 (domain or fragment, UniProt Q9FFD0 152-200)
chain: T6 sequence

- binding [1]: no binding
- binding [4]: no binding
- binding [5]: no binding
- binding [6]: no binding
- binding [7]: no binding
- binding [2]: no binding
- binding [3]: no binding
B7: PIN6 hydrophilic loop, amino acids 167-411 (domain or fragment, UniProt Q9SQH6 167-411)
chain: GQAAGSIAKIQVDDDVISLDGMDPLRTETETDVNGRIRLRIRRSVSSVPDSVMSSSLCLTPRASNLSNAEIFSVNTPNNRFFHGGGGSGTLQFYNGSNEIMFCNGDLGGFGFTRPGLGASPRRLSGYASSDAYSLQPTPRASNFNELDVNGNGTPVWMKSPAAGRIYRQSSPKMMWESGQRHAAKDINGSVPEKEISFRDALKAAPQATAAGGGASMEEGAAGKDTTPVAAIGKQEMPSAIVMMR

- binding [1]: no binding
- binding [4]: no binding
- binding [5]: no binding
- binding [6]: no binding
- binding [2]: no binding
- binding [3]: no binding
B8: PIN7 hydrophilic loop, amino acids 167-460 (domain or fragment, UniProt Q940Y5 167-460)
chain: T5 sequence
